Measured values taken from publication PMC4476799, “Englerin A Agonizes the TRPC4/C5 Cation Channels to Inhibit Tumor Cell Line Proliferation” (PLoS ONE, 2015).
This continues a long series; more values of the same kind are listed elsewhere.

Tested on: cancer cell lines from the cancer cell line encyclopedia (CCLE)
Test: Cell line profiling (CLiP) proliferation experiment
Format: cell-based
Set-up: ACTIVITY_AREA: scale not given here; AMAX: unit not given here
Procedure: Compound profiling experiment and data analysis was performed as previously described. Data was imported and plotted using the Tibco Spotfire DXP application. Lines were categorized as sensitive, intermediate and refractory as follows: Amax<-40 & Inflection Point <2 ~ Sensitive, Amax>-20 & Inflection Point >10 ~ Refractory, all else were called Intermediate. Cancer Cell line HG-U133 Plus 2 data was processed and normalized as described. […] Five sets of refractory cell lines were generated from the pool of refractory cell lines trying to match the lineage composition of the set of sensitive cell lines. The limma package was used as previously described to perform the statistical comparison.

[1] = cell line NCI-H1792 (lung, adenocarcinoma)
[2] = cell line NCI-H2073 (lung, adenocarcinoma)
[3] = cell line PE/CA-PJ41 (clone D2)
[4] = cell line RS4;11, haematopoietic_and_lymphoid_tissue, acute_lymphoblastic_B_cell_leukaemia
[5] = cell line RT-112, urinary_tract, transitional_cell_carcinoma

Q: What does the source list for `CC(C)[C@@]12C[C@@H](O)[C@@](C)(O1)[C@@H]1CC[C@@H](C)[C@H]1[C@@H]2OC(=O)/C=C/c1ccccc1` [Englerin B]?
A: AMAX (cell line NCI-H1781 (lung)): -63.31; RESPONSE (cell line NCI-H1781 (lung)): INTERMEDIATE; ACTIVITY_AREA [1]: 40.56; AMAX [1]: -58.43; RESPONSE [1]: INTERMEDIATE; ACTIVITY_AREA (cell line NCI-H1793): 61.94; AMAX (cell line NCI-H1793): -45.66; RESPONSE (cell line NCI-H1793): INTERMEDIATE; ACTIVITY_AREA (cell line NCI-H1944): 49.5; AMAX (cell line NCI-H1944): -75.02; RESPONSE (cell line NCI-H1944): INTERMEDIATE; ACTIVITY_AREA (cell line NCI-H2023): 80.88; AMAX (cell line NCI-H2023): -75.61; RESPONSE (cell line NCI-H2023): INTERMEDIATE; ACTIVITY_AREA [2]: 37.97; AMAX [2]: -56.11; RESPONSE [2]: INTERMEDIATE; ACTIVITY_AREA (cell line NCI-H2106): 11.07; AMAX (cell line NCI-H2106): -48.52; RESPONSE (cell line NCI-H2106): INTERMEDIATE; ACTIVITY_AREA (cell line NCI-H2122): 59.74; AMAX (cell line NCI-H2122): -36.73; RESPONSE (cell line NCI-H2122): INTERMEDIATE; ACTIVITY_AREA (cell line NCI-H2170): 17.29; AMAX (cell line NCI-H2170): -44.7; RESPONSE (cell line NCI-H2170): INTERMEDIATE; ACTIVITY_AREA (cell line NCI-H2172): 44.13; AMAX (cell line NCI-H2172): -55.3; RESPONSE (cell line NCI-H2172): INTERMEDIATE; ACTIVITY_AREA (cell line NCI-H2330): 44.98; AMAX (cell line NCI-H2330): -45.58; RESPONSE (cell line NCI-H2330): INTERMEDIATE; ACTIVITY_AREA (cell line NCI-H2405): 32.39; AMAX (cell line NCI-H2405): -42.88; RESPONSE (cell line NCI-H2405): INTERMEDIATE; ACTIVITY_AREA (cell line NCI-H2452): 32.7; AMAX (cell line NCI-H2452): -2.13; RESPONSE (cell line NCI-H2452): REFRACTORY; ACTIVITY_AREA (cell line OC 316): 40.59; AMAX (cell line OC 316): -6.47; RESPONSE (cell line OC 316): REFRACTORY; ACTIVITY_AREA (cell line OMM2.3): 18.16; AMAX (cell line OMM2.3): -44.55; RESPONSE (cell line OMM2.3): INTERMEDIATE; RESPONSE (cell line OMM2.5): REFRACTORY; RESPONSE (cell line ONCO-DG-1): INTERMEDIATE; RESPONSE (cell line OS-RC-2): INTERMEDIATE; ACTIVITY_AREA (cell line OUMS-23): 39.54; AMAX (cell line OUMS-23): -76.24; RESPONSE (cell line OUMS-23): INTERMEDIATE; ACTIVITY_AREA (cell line OV7): 174.64; AMAX (cell line OV7): -34.89; RESPONSE (cell line OV7): INTERMEDIATE; ACTIVITY_AREA (cell line OV56): 34.53; AMAX (cell line OV56): -42.75; RESPONSE (cell line OV56): INTERMEDIATE; ACTIVITY_AREA (cell line OV-90): 32.55; AMAX (cell line OV-90): -42.84; RESPONSE (cell line OV-90): INTERMEDIATE; ACTIVITY_AREA (cell line OVCAR-4): 59.14; AMAX (cell line OVCAR-4): -50.24; RESPONSE (cell line OVCAR-4): INTERMEDIATE; ACTIVITY_AREA (cell line OVCAR-8): 57.78; AMAX (cell line OVCAR-8): -69.26; RESPONSE (cell line OVCAR-8): INTERMEDIATE; ACTIVITY_AREA (cell line OVISE): 51.17; AMAX (cell line OVISE): -68.44; RESPONSE (cell line OVISE): INTERMEDIATE; ACTIVITY_AREA (cell line OVSAHO): 17.26; AMAX (cell line OVSAHO): -60.32; RESPONSE (cell line OVSAHO): INTERMEDIATE; ACTIVITY_AREA (cell line P3HR-1): 71.41; AMAX (cell line P3HR-1): -54.24; RESPONSE (cell line P3HR-1): INTERMEDIATE; ACTIVITY_AREA (cell line P12-ICHIKAWA): 32.54; AMAX (cell line P12-ICHIKAWA): -67.41; RESPONSE (cell line P12-ICHIKAWA): INTERMEDIATE; ACTIVITY_AREA (cell line P31/FUJ): 32.81; AMAX (cell line P31/FUJ): -79.81; RESPONSE (cell line P31/FUJ): INTERMEDIATE; ACTIVITY_AREA (cell line PA-TU-8988S): 32.08; AMAX (cell line PA-TU-8988S): -57.5; RESPONSE (cell line PA-TU-8988S): INTERMEDIATE; ACTIVITY_AREA (cell line PANC-1): 38.24; AMAX (cell line PANC-1): -57.06; RESPONSE (cell line PANC-1): INTERMEDIATE; ACTIVITY_AREA (cell line PC-3): 27.62; AMAX (cell line PC-3): -56.65; RESPONSE (cell line PC-3): INTERMEDIATE; ACTIVITY_AREA (cell line PC-14): 53.2; AMAX (cell line PC-14): -60.86; RESPONSE (cell line PC-14): INTERMEDIATE; ACTIVITY_AREA [3]: 24.88; AMAX [3]: -57.93; RESPONSE [3]: INTERMEDIATE; ACTIVITY_AREA (cell line PEER): 70.62; AMAX (cell line PEER): -84.18; RESPONSE (cell line PEER): INTERMEDIATE; ACTIVITY_AREA (cell line PF-382): 21.49; AMAX (cell line PF-382): -65.49; RESPONSE (cell line PF-382): INTERMEDIATE; ACTIVITY_AREA (cell line PL-21): 24.72; AMAX (cell line PL-21): -72.2; RESPONSE (cell line PL-21): INTERMEDIATE; ACTIVITY_AREA (cell line PLC/PRF/5): 81.8; AMAX (cell line PLC/PRF/5): -62.62; RESPONSE (cell line PLC/PRF/5): INTERMEDIATE; ACTIVITY_AREA (cell line PSN1): 48.4; AMAX (cell line PSN1): -50.26; RESPONSE (cell line PSN1): INTERMEDIATE; ACTIVITY_AREA (cell line Panc 02.03): 33.74; AMAX (cell line Panc 02.03): -6.12; RESPONSE (cell line Panc 02.03): REFRACTORY; ACTIVITY_AREA (cell line Panc 03.27): 32.48; AMAX (cell line Panc 03.27): -68.65; RESPONSE (cell line Panc 03.27): INTERMEDIATE; ACTIVITY_AREA (cell line Panc 04.03): 25.22; AMAX (cell line Panc 04.03): -42.01; RESPONSE (cell line Panc 04.03): INTERMEDIATE; ACTIVITY_AREA (cell line Panc 10.05): 44.86; AMAX (cell line Panc 10.05): -68.86; RESPONSE (cell line Panc 10.05): INTERMEDIATE; ACTIVITY_AREA (cell line RCC10RGB): 23.96; AMAX (cell line RCC10RGB): -33.3; RESPONSE (cell line RCC10RGB): INTERMEDIATE; ACTIVITY_AREA (cell line RCH-ACV): 21.26; AMAX (cell line RCH-ACV): -65; RESPONSE (cell line RCH-ACV): INTERMEDIATE; ACTIVITY_AREA (cell line RD): 44.05; AMAX (cell line RD): -26.78; RESPONSE (cell line RD): INTERMEDIATE; ACTIVITY_AREA (cell line REC-1): 20.74; AMAX (cell line REC-1): -85.12; RESPONSE (cell line REC-1): INTERMEDIATE; ACTIVITY_AREA (cell line RERF-LC-AI): 24.39; AMAX (cell line RERF-LC-AI): -47.09; RESPONSE (cell line RERF-LC-AI): INTERMEDIATE; ACTIVITY_AREA (cell line RH-18): 79.38; AMAX (cell line RH-18): -16.44; RESPONSE (cell line RH-18): REFRACTORY; ACTIVITY_AREA (cell line RH-41): 42.17; AMAX (cell line RH-41): -95.73; RESPONSE (cell line RH-41): INTERMEDIATE; ACTIVITY_AREA (cell line RI-1): 98.96; AMAX (cell line RI-1): -92.55; RESPONSE (cell line RI-1): INTERMEDIATE; ACTIVITY_AREA (cell line RKN): 25.89; AMAX (cell line RKN): -49.43; RESPONSE (cell line RKN): INTERMEDIATE; ACTIVITY_AREA (cell line RKO): 25.58; AMAX (cell line RKO): -79.57; RESPONSE (cell line RKO): INTERMEDIATE; ACTIVITY_AREA (cell line RL): 38.44; AMAX (cell line RL): -90.86; RESPONSE (cell line RL): INTERMEDIATE; ACTIVITY_AREA (cell line RMUG-S): 7.3; AMAX (cell line RMUG-S): 2.82; RESPONSE (cell line RMUG-S): REFRACTORY; ACTIVITY_AREA (cell line RPMI 8226): 43; AMAX (cell line RPMI 8226): -80.8; RESPONSE (cell line RPMI 8226): INTERMEDIATE; ACTIVITY_AREA (cell line RPMI-7951): 38.85; AMAX (cell line RPMI-7951): -60.36; RESPONSE (cell line RPMI-7951): INTERMEDIATE; ACTIVITY_AREA (cell line RPMI-8402): 70.19; AMAX (cell line RPMI-8402): -61.1; RESPONSE (cell line RPMI-8402): INTERMEDIATE; ACTIVITY_AREA [4]: 34.25; AMAX [4]: -73.99; RESPONSE [4]: INTERMEDIATE; ACTIVITY_AREA [5]: 66.59; AMAX [5]: -78.07
